Measured values from article PMC3556083.
Results are given in words; binding and its absence hold for the method and conditions named. In cells and extracts the contact can be indirect. Some results given as binding are weak or reduced against the parent protein; the word gives no strength.

Protein sequences, listed by entry. Tags and fused reporters are not part of them.
UniProt Q09137: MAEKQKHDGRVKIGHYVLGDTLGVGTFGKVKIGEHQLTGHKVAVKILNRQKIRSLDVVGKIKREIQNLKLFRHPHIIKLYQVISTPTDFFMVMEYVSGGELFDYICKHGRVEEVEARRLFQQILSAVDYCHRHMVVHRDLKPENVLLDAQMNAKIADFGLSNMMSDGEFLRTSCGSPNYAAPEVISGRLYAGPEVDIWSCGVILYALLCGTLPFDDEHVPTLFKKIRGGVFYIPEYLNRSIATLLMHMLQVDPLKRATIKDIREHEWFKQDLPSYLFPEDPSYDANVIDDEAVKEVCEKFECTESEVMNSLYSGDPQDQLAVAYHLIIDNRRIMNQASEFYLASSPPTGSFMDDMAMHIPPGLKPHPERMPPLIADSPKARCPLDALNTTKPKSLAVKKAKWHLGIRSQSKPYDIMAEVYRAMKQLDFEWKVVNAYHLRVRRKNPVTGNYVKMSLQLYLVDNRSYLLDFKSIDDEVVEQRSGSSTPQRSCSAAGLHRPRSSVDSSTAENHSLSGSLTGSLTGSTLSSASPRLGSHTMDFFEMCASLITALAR
UniProt P62994: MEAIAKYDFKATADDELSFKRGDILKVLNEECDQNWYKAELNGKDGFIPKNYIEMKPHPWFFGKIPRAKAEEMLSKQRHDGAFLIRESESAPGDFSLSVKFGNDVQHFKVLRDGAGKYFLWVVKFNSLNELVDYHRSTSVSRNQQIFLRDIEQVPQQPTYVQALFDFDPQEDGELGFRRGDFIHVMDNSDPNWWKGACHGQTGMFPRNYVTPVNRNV
UniProt P63095: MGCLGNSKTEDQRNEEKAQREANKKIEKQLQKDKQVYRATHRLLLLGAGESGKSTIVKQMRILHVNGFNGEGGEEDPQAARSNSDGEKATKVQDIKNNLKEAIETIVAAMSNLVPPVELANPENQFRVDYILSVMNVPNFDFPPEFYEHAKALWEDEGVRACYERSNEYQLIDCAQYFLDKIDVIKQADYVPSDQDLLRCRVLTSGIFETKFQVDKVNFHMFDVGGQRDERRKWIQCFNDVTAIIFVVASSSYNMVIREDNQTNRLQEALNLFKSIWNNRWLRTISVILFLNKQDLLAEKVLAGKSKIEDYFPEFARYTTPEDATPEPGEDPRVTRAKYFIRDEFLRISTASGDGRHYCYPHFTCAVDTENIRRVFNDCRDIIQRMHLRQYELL
UniProt Q920G2: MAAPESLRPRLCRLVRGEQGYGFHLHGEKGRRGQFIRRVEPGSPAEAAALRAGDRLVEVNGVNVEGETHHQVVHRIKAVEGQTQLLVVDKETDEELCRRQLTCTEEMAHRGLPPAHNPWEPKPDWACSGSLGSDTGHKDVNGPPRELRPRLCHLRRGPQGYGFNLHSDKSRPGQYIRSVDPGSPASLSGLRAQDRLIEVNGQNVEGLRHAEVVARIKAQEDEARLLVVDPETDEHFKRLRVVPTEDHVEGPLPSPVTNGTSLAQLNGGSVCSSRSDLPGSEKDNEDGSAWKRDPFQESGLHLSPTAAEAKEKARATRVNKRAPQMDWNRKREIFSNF

Experiments:
β2-adrenergic receptor [1] = target: β2-adrenergic receptor (UniProt P07550); assay: pull-down; purified Flag-β2AR in rHDL on M1 anti-Flag resin, occupied by 50 µM BI-167107 or 50 µM carazolol; adult rat heart cytosol overnight at 4°C; eluate analysed by Western blot; only the target purified
β2-adrenergic receptor [2] = target: β2-adrenergic receptor (UniProt P07550); assay: condition: only β2AR occupied by the inverse agonist carazolol (50 µM); pull-down; as a2, the sample with β2AR occupied by 50 µM carazolol (inverse agonist) alone; Western blot; only the target purified

binding (β2-adrenergic receptor [1]) | binding (β2-adrenergic receptor [2]) | Substance
binds | – | AMPKα2 (from UniProt Q09137 1-552)
binds | – | Grb2 (from UniProt P62994 1-217)
binds | no binding | Gsα (from UniProt P63095 1-394)
binds | – | NHERF-2 (from UniProt Q920G2 1-337)
